Data source: PubChem BioAssay AID1259405 (NCATS, 2018)
Test: 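Knock-downs that lift recombinant protein yield in hamster ovary cells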 (primary screen). Cells: Chinese hamster CHO-K1 ovary cells with stable secreted eGFP expression. Knock-down reagent: single siRNA against mouse genes, 0.8 pmol siRNA per well (2 µl of 400 nM stock). Duration: 3 days. Read-out: 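Per-well intracellular GFP measured by laser scanning cytometry, plus viability from ATP luminescence, each relative to plate median of non-targeting control wells, in %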. Direction: GFP, % of control: higher = more GFP per well, higher productivity. Call rule: 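a knock-down is called active if GFP reaches 120% or more of non-targeting control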.
The deposit covers about 50,000 reagents; below is an unselected part. About 4,000 of them (8%) count as active. 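Mouse siRNA library applied to hamster cells; one well for each siRNA.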 Entries without a mark were called inactive. The numbers tell different reagents against one gene apart. Not all columns of the deposit are shown. Reagent sequences are not shown.

GFP, % of control, by gene and reagent
Tube1 (GeneID 71924): #1 37.3; #2 40.4
Ltb (GeneID 16994): #1 0.181; #2 88.5
Large2 (GeneID 228366): #1 98.5; #2 67; #3 86.5
Cpn1 (GeneID 93721): #1 82.7; #2 67.3; #3 95.2
Cyp2d12 (GeneID 380997): #1 164 (active); #2 53.5; #3 71
Nudt16 (GeneID 75686): #1 57.2; #2 68.7; #3 85.4

No new results follow: an excerpt of the list.
GFP, % of control, by gene and reagent
Tube1 (GeneID 71924): #1 37.3; #2 40.4
Ltb (GeneID 16994): #1 0.181

The results go on:
GFP, % of control, by gene and reagent
Klhl9 (GeneID 242521): #1 67; #2 134 (active); #3 97
Htt (GeneID 15194): #1 34.9; #2 100
Hspa14 (GeneID 50497): #1 79; #2 77.5; #3 59.8
Kifc3 (GeneID 16582): #1 70.5; #2 61.3
Padi2 (GeneID 18600): #1 79.9; #2 142 (active); #3 56.7
Manba (GeneID 110173): #1 64.4; #2 70.4; #3 58.5
Lrat (GeneID 79235): #1 84; #2 24.5; #3 101
